The whole screen tested about 330,000 compounds, of which about 7,700 (2.3%) were called active. This list was built around the results that the source calls inconclusive (neither active nor inactive); the mix of calls is not that of the screen. The call rests on the fitted dose curve; in most records, active means well fitted inhibition curve with a large enough effect; inconclusive means small, poorly fitted or top-dose-only effect, or effect the other way; inactive means flat fitted curve, though single readings scatter. A potency beside an inconclusive call is a rough fit, not a confirmed value.
Assay: qHTS screen for small molecules that inhibit ELG1-dependent DNA repair in human embryonic kidney (HEK293T) cells expressing luciferase-tagged ELG1; further: nearly all actives have a fitted effect of over 55% in size
Conditions: HEK293T ELG1-luciferase reporter, luminescence, 16 h, DNA damage induced by 5-fluorouridine; series mostly up to 46.1 µM
Summary of the method: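 In this reporter screen, reduction of luminescence relative to DMSO vehicle indicated activity. Compounds and 5-fluorouridine were added together to 2,000 cells per well, incubated for 16 hr at 37 °C, then developed with ONE-Glo.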
Potency means the concentration at half of the fitted maximal effect.

Q: With `Cc1ccccc1NC(=O)Cc1nc(COC(=O)c2cc(Cl)ccc2O)cs1` as the molecule, how does the Potency read?
A: The Potency was “inactive”.

Q: With `Cc1cc(=O)oc2cc3c(cc12)OCCN3` as the molecule, how does the Potency read?
A: The Potency was inconclusive: 20.6 µM [activator, single point].

Q: For `COc1ccc(CCNC(=O)CSc2ccc3ccccc3c2)cc1OC`, which Potency is on record?
A: The Potency was “inactive”.

Q: Which Potency does the source give for `CCC(CC)C(=O)Nc1c(C(=O)N2CCN(c3ccccc3)CC2)oc2ccccc12` here?
A: The Potency was inconclusive: 20.6 µM [inhibitor, partial curve, poor fit].

Q: For `O=C(CN(C(=O)c1csnn1)c1ccccc1C(F)(F)F)NC1CCCCC1`, which Potency is on record?
A: Its Potency is “inactive”.

Q: With `CC(C)CCn1c(O)c(N=NC(=O)Cn2ccc(C(F)(F)F)n2)c2ccccc21` as the molecule, how does the Potency read?
A: The Potency was “inactive”.

Q: For `O=C(CC1=NCCNC(c2ccccc2)C1)c1ccccc1O` (stereo not given), which Potency is on record?
A: The Potency was inconclusive: 18.4 µM [activator, partial curve].

Q: Which Potency does the source give for `CC(=O)N1CC(C)Oc2ccc(S(=O)(=O)NC(CC(=O)O)c3ccc(C)cc3C)cc21` (stereo not given) here?
A: The Potency was “inactive”.

Q: With `Cc1ccc(CNS(=O)(=O)c2ccc(-c3cnc(C4CC4)o3)cc2)cc1` as the molecule, how does the Potency read?
A: Its Potency is “inactive”.

Q: With `CCCCCc1cc(=O)oc2c(C(CCN3CCCC(C)C3)c3cc(OC)c(OC)c(OC)c3)c(OC)cc(OC)c12` (stereo not given) as the molecule, how does the Potency read?
A: The Potency was “inactive”.

Q: For `CC1CCCCC1NC(=O)COc1ncnc2sccc12` (stereo not given), which Potency is on record?
A: Its Potency is “inactive”.

Q: Which Potency does the source give for `CCc1ccc(NC(=O)C2CCN(c3ncnc4c3nc3n4CCCCC3)CC2)cc1` here?
A: The Potency was active: 2.59 µM.

Q: For `CC(C)[C@H](NC(=O)c1ccc(F)cc1)C(=O)N(C)Cc1cccs1`, which Potency is on record?
A: Its Potency is “inactive”.

Q: For `O=c1c2ccccc2[nH]c(=S)n1-c1cccc(S(=O)(=O)N2CCCC2)c1`, which Potency is on record?
A: Its Potency is “inactive”.

Q: Which Potency does the source give for `COc1ccc(N2C(=O)c3ccccc3NC2c2ccc(OC)c(Cn3nnc4ccccc43)c2)cc1` (stereo not given) here?
A: Its Potency is inconclusive: 29.1 µM [inhibitor, single point].

Q: With `Cc1ccc(Nc2ncc3c(n2)CC(C)CC3=O)c(C)c1` (stereo not given) as the molecule, how does the Potency read?
A: Its Potency is inconclusive: 2.59 µM [activator, full curve].

Q: For `Cc1nc2scc(-c3ccc(C(C)C)cc3)c2c(=O)n1N`, which Potency is on record?
A: The Potency was inconclusive: 18.3 µM [inhibitor, single point].

Q: Which Potency does the source give for `O=C(O)c1ccc(N/N=C/c2cccc3nccnc23)cc1` here?
A: Its Potency is inconclusive: 18.3 µM [activator, partial curve].

Q: Which Potency does the source give for `Cc1ccc(C2=NN(C(=O)CCCC(=O)O)C(c3ccco3)C2)cc1` (stereo not given) here?
A: The Potency was inconclusive: 29.1 µM [activator, partial curve, poor fit].

Q: Which Potency does the source give for `Cc1nc(N2CCN(S(=O)(=O)c3ccccc3C#N)CC2)c2c(-c3cccs3)csc2n1` here?
A: The Potency was active: 18.3 µM.

Q: For `O=C(CNC(=S)NC(=O)c1ccccc1)c1ccccc1`, which Potency is on record?
A: Its Potency is inconclusive: 16.4 µM [activator, partial curve].

Q: For `CCC[C@@H](CN1CCC[C@H]1CN1C(N)=NC[C@@H]1Cc1ccccc1)N1C[C@@H]([C@H](C)CC)N(CCc2ccc(Cl)c(Cl)c2)C1=N`, which Potency is on record?
A: Its Potency is inconclusive: 16.4 µM [activator, single point].

Q: With `CCN(CC)CCCNC(=S)N1CCN(c2nc3ccccc3n2CC)CC1` as the molecule, how does the Potency read?
A: The Potency was “inactive”.

Q: Which Potency does the source give for `CCn1c(=O)c([N+](=O)[O-])c(NCc2ccc3c(c2)OCO3)c2ccccc21` here?
A: Its Potency is inconclusive: 5.8 µM [inhibitor, full curve].

Q: With `COc1ccc(CC(=O)N/N=C(\C)c2cccnc2)cc1` as the molecule, how does the Potency read?
A: The Potency was inconclusive: 20.6 µM [activator, partial curve, poor fit].

Q: Which Potency does the source give for `O=C(NCc1ccccc1F)c1ccc2c(c1)OCCO2` here?
A: The Potency was inconclusive: 23.1 µM [activator, single point].

Q: For `O=C(c1ccccc1CCc1ccccc1)N1CCN(c2ccccn2)CC1`, which Potency is on record?
A: Its Potency is inconclusive: 4.11 µM [inhibitor, full curve].

Q: For `COc1ccc(/[N+]([O-])=C/c2ccoc2)cc1`, which Potency is on record?
A: Its Potency is inconclusive: 16.4 µM [activator, partial curve, poor fit].

Q: Which Potency does the source give for `Cc1ccc(CNC(=O)c2ccc(N3CCC4(CC3)CC(c3ccccc3)=NO4)c(NC(=O)c3ccco3)c2)cc1` here?
A: Its Potency is active: 1.16 µM.

Q: With `CNC(=O)COC(=O)/C=C/c1c(C)nn(-c2ccccc2)c1C` as the molecule, how does the Potency read?
A: Its Potency is “inactive”.

Q: Which Potency does the source give for `Cc1ccc(C(=O)NCCc2nnc3ccc(SCC(=O)Nc4ccccc4F)nn23)cc1` here?
A: Its Potency is “inactive”.

Q: For `Cc1ccc(S(=O)(=O)Nc2cccc(-c3ccc(N4CCCCCC4)nn3)c2)cc1C`, which Potency is on record?
A: The Potency was inconclusive: 2.59 µM [activator, full curve].

Q: Which Potency does the source give for `CN(C(=O)C(=O)c1cn(CC(=O)N2CCCC2)c2ccccc12)C1CCCCC1` here?
A: The Potency was “inactive”.

Q: For `Cc1ccc(C(=O)NNC(=O)C2CCN(c3ncccn3)CC2)cc1`, which Potency is on record?
A: Its Potency is “inactive”.

Q: Which Potency does the source give for `CCOc1ccc2nc(N3C(=O)C(O)=C(C(=O)c4ccco4)C3c3ccco3)sc2c1` (stereo not given) here?
A: Its Potency is inconclusive: 8.2 µM [activator, partial curve, poor fit].

Q: For `CCCn1c(SCC(=O)Nc2ccc3c(c2)OCCO3)n[nH]c1=O`, which Potency is on record?
A: Its Potency is inconclusive: 16.4 µM [activator, single point].

Q: For `CC(=O)NCCn1c(SCc2ccccc2F)nc2ccccc2c1=O`, which Potency is on record?
A: The Potency was inconclusive: 5.17 µM [activator, single point].

Q: Which Potency does the source give for `Cc1csc(=O)n1CCC(=O)OC(C)C(=O)Nc1ccc(N2CCOCC2)cc1` (stereo not given) here?
A: The Potency was inconclusive: 29.1 µM [activator, single point].

Q: With `COC(=O)C1CCN(C(=O)[C@H](C)NC(=O)C2CC(=O)N(c3ccc(F)cc3)C2)CC1` (stereo not given in full) as the molecule, how does the Potency read?
A: Its Potency is inconclusive: 0.184 µM [inhibitor, partial curve, poor fit].

Q: For `COc1ccccc1N1CCN(CC(O)COc2ccc3c(c2)CCC3)CC1` (stereo not given), which Potency is on record?
A: Its Potency is inconclusive: 18.4 µM [inhibitor, single point].

Q: Which Potency does the source give for `COc1ccccc1COCC(O)CNCCc1ccc(C(F)(F)F)cc1` (stereo not given) here?
A: Its Potency is “inactive”.

Q: For `O=C(/C=C/c1ccco1)Oc1ccc(C(=S)N2CCOCC2)cc1`, which Potency is on record?
A: The Potency was “inactive”.

Q: For `Cc1ccc(CN(CC(=O)N/N=C/c2ccco2)S(=O)(=O)c2ccc(C)cc2)cc1`, which Potency is on record?
A: Its Potency is inconclusive: 32.6 µM [inhibitor, partial curve, poor fit].

Q: Which Potency does the source give for `O=C1C2CC=CCC2C(=O)N1c1ccc(NCCc2ccccc2)c([N+](=O)[O-])c1` (stereo not given) here?
A: Its Potency is inconclusive: 16.4 µM [activator, single point].

Q: Which Potency does the source give for `CCOc1ccc(OCc2cccc(C(=O)N3CCOCC3)c2)cc1` here?
A: The Potency was inconclusive: 0.206 µM [activator, partial curve].

Source: PubChem BioAssay AID504467 (National Center for Advancing Translational Sciences (NCATS), 2011)
